The chains are these.
B1: ATG101 (protein, UniProt Q9D8Z6 1-218)
chain: MNCRSEVLEVSVEGRQVEEAMLAVLHTVLLHRSTGKFHYKKEGTYSIGTVGIQDVDCDFIDFTYVRVSSEELDRALRKVVGEFKDALRNSGGDGLGQMSLEFYQKKKSRWPFSDECIPWEVWTVKVHVVALATEQERQICREKVGEKLCEKIINIVEVMSRHEYLPKMPTQSEVDNVFDTGLRDVQPYLYKISFQITEALGTSVTTTMRRLIKDTLAL
B2: ATG16L2 (protein, UniProt Q6KAU8 1-623)
chain: MAGPGAPCDPCAPAAVWKRHIVRQLRHRDRTQKALFLELVPAYNHLLEKAELLAKFSEKLKSEPKDAISTRHEDWREEVSGTGPDQVSSPASLRVKWQQEKKGLQLVCGEMAYQVVKKSAALDTLQSQLEERQDRLEALQACVVQLQEARAQQSRQLEERQAENAAQREAYETLLQQAVHQEAALRRLQEEARDLLEQLVQRKARAAAERNLRNERRERANQALVSQELKKAAKRTVSISEIPNTLEDGTKEETVALAPAALPEFSESETCEKWKRPFRSASATSLTLSRCVDVVKGLLDFKKRRGHSVGGAPEQRYQSIPVCVSAQIPSQAQDVLDAHLSEVNAVCFGPNSSLLATGGADRLIHLWNVVGGRLEANQTLEGAGGSITSVDFDPSGSQVLAATYNQAAQLWKVGETQSKETLSGHKDKVTAAKFKLTRHQAVTGSRDRTVKEWDLGRAYCSRTINVLSYCNDVVCGDHIIISGHNDQKIRFWDSRGPHCIQVIPVQGRVTSLHLSYDQLHLLSCSRDNTLKVIDLRISNIRQVFRADGFKCSSDWTKAVFSPDRSYALAGSSNGDLYIWDVNTGKLETSLQGPHCTAVNAVAWCFSGNHVVSVDQGRKVVLWH
B3: ULK1 (protein, UniProt O70405 1-1051)
chain: MEPGRGGVETVGKFEFSRKDLIGHGAFAVVFKGRHREKHDLEVAVKCINKKNLAKSQTLLGKEIKILKELKHENIVALYDFQEMANSVYLVMEYCNGGDLADYLHTMRTLSEDTVRLFLQQIAGAMRLLHSKGIIHRDLKPQNILLSNPGGRRANPSNIRVKIADFGFARYLQSNMMAATLCGSPMYMAPEVIMSQHYDGKADLWSIGTIVYQCLTGKAPFQASSPQDLRLFYEKNKTLVPAIPRETSAPLRQLLLALLQRNHKDRMDFDEFFHHPFLDASTPIKKSPPVPVPSYPSSGSGSSSSSSSASHLASPPSLGEMPQLQKTLTSPADAAGFLQGSRDSGGSSKDSCDTDDFVMVPAQFPGDLVAEAASAKPPPDSLLCSGSSLVASAGLESHGRTPSPSPTCSSSPSPSGRPGPFSSNRYGASVPIPVPTQVHNYQRIEQNLQSPTQQQTARSSAIRRSGSTTPLGFGRASPSPPSHTDGAMLARKLSLGGGRPYTPSPQVGTIPERPSWSRVPSPQGADVRVGRSPRPGSSVPEHSPRTTGLGCRLHSAPNLSDFHVVRPKLPKPPTDPLGATFSPPQTSAPQPCPGLQSCRPLRGSPKLPDFLQRSPLPPILGSPTKAGPSFDFPKTPSSQNLLTLLARQGVVMTPPRNRTLPDLSEASPFHGQQLGSGLRPAEDTRGPFGRSFSTSRITDLLLKAAFGTQASDSGSTDSLQEKPMEIAPSAGFGGTLHPGARGGGASSPAPVVFTVGSPPSGATPPQSTRTRMFSVGSSSSLGSTGSSSARHLVPGACGEAPELSAPGHCCSLADPLAANLEGAVTFEAPDLPEETLMEQEHTETLHSLRFTLAFAQQVLEIAALKGSASEAAGGPEYQLQESVVADQISQLSREWGFAEQLVLYLKVAELLSSGLQTAIDQIRAGKLCLSSTVKQVVRRLNELYKASVVSCQGLSLRLQRFFLDKQRLLDGIHGVTAERLILSHAVQMVQSAALDEMFQHREGCVPRYHKALLLLEGLQHTLTDQADIENIAKCKLCIERRLSALLSGVYA
B4: TECPR1 (tectonin beta-propeller repeat containing 1) (protein, UniProt Q80VP0 1-1166)
chain: MPTSVLWAVDLFGRVYTLSTAGQYWELCKDVQLEFKRVSAATQCCWGIAGDNQVYLYVCSSDVPIRHREEAYENQRWNPMGGFCEKLLPSDRWPWSDVSGLQHRPLDGVALPSPHWEWESDWYVDENFGGEPTEKGGWTYAMDFPATYTRDKKWNSCVRRRKWIRYRRYKSRDSWAKIPSKDDPKELPDPFNDLSVGGWEITEEPVGRLSVWAVSLQGKVWYREDVSHPNPEGSSWSLVETPGEVVQISCGPHDLIWATLWEGQALVREGVCRNNPKGSYWSMVEPPGSENGIMHVSAGVSVVWAITKDRKVWFRRGVNSHNPCGTSWIEMVGEMTMVNVGLNDQVWGISCEDRAVYFRQGVTPSELSGKTWKAIVVGRESDRSHSGSSSSLLSAGCFFGDEVRGSGTESAPSDTDASLEVERQGPEQPLPKEALDNSTNLKGSLSKGHETSGNTDHSTENACLTEGKEKAPETSRSDECRGPASTPAELPWTNIDLKEPKKVSNQPAAGFPETAGLSSLGLFPMGMEEPYGADDHPLWAWVSGGACAVEAGSTLKWFTIQSGLSPSVQTLSLSITPAQTAAWRKQIFQQLTERTKRELESFRHYEQAVEQSVWVKTGALQWWCDWKPHKWVDVRVALEQFTGHDGARDSILFIYYVVHEEKKYLHVFLNEVTVLVPVLNEAKHSFALYTPERTRQRWPVRLAAATEQDMNDWLALLSLSCCESRKVHGRPSPQAIWSVTCKGDIFVSEPSPDLEARERLLPCDQMFWRQMGGHLRIIEANSRGVVWGIGYDHTAWVYTGGYGGGCFQGLASSTSNIYTQSDVKSVYIYENQRWNPVTGYTSRGLPTDRFMWSDVTGLQECTKAGTKPPSLQWTWVSDWYVDFSVPGGTDQEGWQYASDFPASYHGYKTMKDFVRRRCWARKCKLVTSGPWLEVAPITLSDVSIIPESAHADGRGHNVALWAVSDKGDVLCRLGVSELNPAGSSWLHVGTDQPFASVSIGACYQVWAVARDGSAFYRGSVSPSQPAGDCWYHIPSPPKQKLTQVSVGQTSVYALDENGNLWYRAGITPSYPQGSSWEHVSNNVRKVSVGPLDQVWVIANKVQGSHGLSRGTVCRRMGVQPREPKGQGWDYGIGGGWDHISVRANATRVPRNMSRDREARGPGPVCC
B5: ATG13 (protein, UniProt Q91YI1 1-516)
chain: METELSSQDRKDLDKFIKFFALKTVQVIVQARLGEKICTRSSSSPTGSDWFNLAIKDIPEVTHEAKKALSGQLPAVGRSMCVEISLKTSEGDSMELEIWCLEMNEKCDKEIKVSYTVYNRLSLLLKSLLAITRVTPAYRLSRKQGHEYVILYRIYFGEVQLNGLGEGFQTVRVGTVGTPVGTLTLSCAYRINLAFMSTRQFERTPPIMGIIIDHFVDRPYPSSSPMHPCNYRTAEDAGVAYPSVEDSQEVCTTSFSTSPPSQLSSSRLSYQPAVLGLGSADLAYPVVFTAGLNTTHAHQLMVPGKEGGVTLAPSHPTHGAQADPERLVMHMPSDGTHCAATPSSSEDTETVSNSSEGRASPHDILETIFVRKVGAFVNKPINQVTVTSLDIPFAMFAPKNLELEDADPMVNPPESPETTSPLHGSLHSDGSSGGSGGSTHDDFVMIDFKPAFSKDDILPMDLGTFYREFQNPPQLSSLSIDFGAQSMAEDLDSLPEKLAVHEKNVREFDAFVETLQ

Here are results for five molecules from PMC9015699.

No constants are given. Whether binding was seen depends on the method and setting. Binding seen in cells or lysates may run through a third protein. Here binding means that the protein was enriched with, or labelled near, the bait; the list need not be complete. For some of these results: No binding means not detected with the bait. For some of these results: Where a sequence is shown, tags or fusion partners need not be part of it.

For the first assay, the target named is T1, GFP-ATG5 K130R (mouse) (UniProt Q99J83).
T1 sequence: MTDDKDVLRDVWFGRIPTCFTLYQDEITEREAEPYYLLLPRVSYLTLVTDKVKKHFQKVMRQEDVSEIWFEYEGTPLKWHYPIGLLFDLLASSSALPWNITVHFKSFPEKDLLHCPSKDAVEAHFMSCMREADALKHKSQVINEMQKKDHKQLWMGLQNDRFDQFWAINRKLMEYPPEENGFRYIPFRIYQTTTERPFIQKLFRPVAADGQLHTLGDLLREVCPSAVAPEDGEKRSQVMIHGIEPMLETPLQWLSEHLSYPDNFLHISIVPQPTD
The assay can be described thus: affinity purification with mass spectrometry; GFP-Trap immunoisolation from lysates of SILAC-labelled atg5-/- MEFs stably expressing GFP, WT GFP-ATG5 or GFP-ATG5 K130R, starved 1 h; LC-MS/MS; hits: 2 or more peptides, >2-fold enrichment over GFP.
As for B1, the binding result was “no binding”.
For B2, the binding entry is on record as “binds”.
On the same count and under the same terms, the value for B3 was “binds”; that for B4 was “binds”; that for B5 was “no binding”.

The next assay deals with wild-type GFP-ATG5 (mouse) (UniProt Q99J83). The description is as above.
For the molecule B1, the binding entry is recorded as “no binding”.
The same measure, in the same setting: the value for B4 was “binds”.
Still for that read-out and setting: as for B5, the entry is “no binding”.

A further assay has the same target. The assay can be described thus: affinity purification with mass spectrometry; GFP-Trap SILAC proteomics from atg3-/- MEFs stably expressing GFP, WT GFP-ATG5 or GFP-ATG5 K130R, after nutrient starvation; hits: peptide count 2 or more, >2-fold enriched over GFP and GFP-ATG5 K130R; bait expressed alongside endogenous ATG5.
In the case of B2, the binding entry is reported as “binds”.
The same measure, in the same setting: as for B4, the entry is “binds”.
